Data as given in PubChem BioAssay AID1259308 (NCATS, 2017)

Assay: 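Knock-downs that increase output of a recombinant reporter protein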 (primary screen)
System: human HEK293 embryonic kidney cells stably expressing firefly luciferase (HEK-CMV-Luc2-Hygro)
Reagent: single siRNA against human genes, 0.8 pmol siRNA per well
Time to read-out: 72 h
Measured: 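Reporter luminescence and viable-cell signal on separate replicate plates, given as percent of non-targeting control and median/MAD z-scores, plus per-cell luciferase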
Reading the numbers: total luciferase, z-score and total luciferase, % of control: higher = more reporter protein produced
Active means: 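Active when the median/MAD z-score for overall luciferase is greater than 3; a gene was taken forward for validation with new siRNAs if at least two of its three siRNAs passed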
Meaning of the calls: active = raised luciferase; inactive = no rise
The deposit covers about 59,000 reagents; below is an unselected part. In the full data, about 1,510 (2.6%) are marked active. 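Calls use total luciferase alone and ignore viability, so some active siRNAs may act by altering cell number.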 Unmarked entries are inactive. The numbers tell different reagents against one gene apart. Not all columns of the deposit are shown. No sequences are given here.

MAP3K4 #1 → total luciferase, z-score = -0.314; total luciferase, % of control = 75.6
MAP3K4 #2 → total luciferase, z-score = -0.115; total luciferase, % of control = 79.6
MAP3K4 #3 → total luciferase, z-score = 1.04; total luciferase, % of control = 103
BGN #1 → total luciferase, z-score = 0.44; total luciferase, % of control = 90.6
BGN #2 → total luciferase, z-score = -0.289; total luciferase, % of control = 76.1
BGN #3 → total luciferase, z-score = 3.27 (active); total luciferase, % of control = 147
CRELD2 #1 → total luciferase, z-score = 0.255; total luciferase, % of control = 87
CRELD2 #2 → total luciferase, z-score = -0.145; total luciferase, % of control = 79
CRELD2 #3 → total luciferase, z-score = -0.429; total luciferase, % of control = 73.4
GALE #1 → total luciferase, z-score = 0.0541; total luciferase, % of control = 83
GALE #2 → total luciferase, z-score = 0.255; total luciferase, % of control = 87
GALE #3 → total luciferase, z-score = 1.52; total luciferase, % of control = 112
FOXD4L4 #1 → total luciferase, z-score = -0.182; total luciferase, % of control = 78.3
FOXD4L4 #2 → total luciferase, z-score = -1.07; total luciferase, % of control = 60.7
FOXD4L4 #3 → total luciferase, z-score = -0.021; total luciferase, % of control = 81.5
PNPLA2 #1 → total luciferase, z-score = -1.08; total luciferase, % of control = 60.3
PNPLA2 #2 → total luciferase, z-score = 1.14; total luciferase, % of control = 104
PNPLA2 #3 → total luciferase, z-score = 0.777; total luciferase, % of control = 97.3
DNER #1 → total luciferase, z-score = 3.14 (active); total luciferase, % of control = 144
DNER #2 → total luciferase, z-score = 0.447; total luciferase, % of control = 90.8
DNER #3 → total luciferase, z-score = 0.244; total luciferase, % of control = 86.7
TCF7L2 #1 → total luciferase, z-score = -0.963; total luciferase, % of control = 62.7
TCF7L2 #2 → total luciferase, z-score = -0.566; total luciferase, % of control = 70.6
TCF7L2 #3 → total luciferase, z-score = 0.0309; total luciferase, % of control = 82.5
LCE1C #1 → total luciferase, z-score = -1.87; total luciferase, % of control = 44.7
LCE1C #2 → total luciferase, z-score = -0.0388; total luciferase, % of control = 81.1
LCE1C #3 → total luciferase, z-score = 0.364; total luciferase, % of control = 89.1
POU5F1 #1 → total luciferase, z-score = 3.98 (active); total luciferase, % of control = 161
POU5F1 #2 → total luciferase, z-score = 3.67 (active); total luciferase, % of control = 155
POU5F1 #3 → total luciferase, z-score = 1.12; total luciferase, % of control = 104
PLXNA1 #1 → total luciferase, z-score = 0.809; total luciferase, % of control = 98
PLXNA1 #2 → total luciferase, z-score = 2.3; total luciferase, % of control = 128
PLXNA1 #3 → total luciferase, z-score = -1.93; total luciferase, % of control = 43.6
